{"source": "paper PMC11345769", "about": "(Journal of medicinal chemistry, 2024)", "data": [{"test": "general procedure: Fmoc solid-phase peptide synthesis; 2-CTC resin (loading density 1.6 mmol/g); TBTU, HOAt, DIPEA", "conditions": "whole synthesis", "units": {"isolated yield": "%"}, "values": [{"substance": "H2N-Lys-(SiFA)SeFe-Gly-Tyr-OH", "isolated yield": 12.6}, {"substance": "H2N-Glu-(SiFA)-SeFe-Gly-Asp-OH", "isolated yield": 4.9}, {"substance": "H2N-Lys-(SiFA)SeFe-Gly-Asp-OH", "isolated yield": 7.4}, {"substance": "H2N-Glu-(SiFA)SeFe-Gly-Lys-OH", "isolated yield": 10.1}, {"substance": "H2N-Glu-(SiFA)SeFe-Gly-Tyr-OH", "isolated yield": 12.8}, {"substance": "H2N-Lys-(SiFA)SeFe-Gly-Lys-OH", "isolated yield": 13.3}]}]}
